Values from PubChem BioAssay AID1259308 (NCATS, 2017).

Assay: 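Genes whose loss raises luciferase production in HEK293 cells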 (primary screen)
Cells: human HEK293 embryonic kidney cells stably expressing firefly luciferase (HEK-CMV-Luc2-Hygro)
Reagents: single siRNA against human genes, 0.8 pmol siRNA per well
Timing: 72 h
Measured: 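Luciferase light (ONE-Glo) measured on one replicate plate set and viability (CellTiter-Glo) on the other, scaled to a negative control siRNA, with robust z-scores and luciferase per cell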
Reading the numbers: total luciferase, z-score and total luciferase, % of control: higher = more reporter protein produced; luciferase per cell, z-score: higher = more reporter output per viable cell; viable cells, % of control: higher = more viable cells
Rule for the call: 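An siRNA counts as active if its total luciferase robust z-score exceeds 3; genes with two or more such siRNAs out of three were retested with fresh siRNAs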
Calls: active = raised luciferase; inactive = no rise
Here is one part, drawn at random, of about 59,000 reagents tested. About 1,510 of them (2.6%) count as active. 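Calls use total luciferase alone and ignore viability, so some active siRNAs may act by altering cell number.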 A number with no mark means an inactive call. Reagent sequences are not shown.

| gene | PubChem SID | total luciferase, z-score | total luciferase, % of control | luciferase per cell, z-score | viable cells, % of control |
| --- | --- | --- | --- | --- | --- |
| REM1 | SID160738858 | -0.0214 | 81.5 | 0.0995 | 88.7 |
| REM1 | SID160738859 | -0.0901 | 80.1 | -0.358 | 98.4 |
| REM1 | SID160738860 | 2.38 | 129 | 1.86 | 88.5 |
| SHB | SID160716681 | 1.65 | 115 | 0.764 | 105 |
| SHB | SID160716682 | 0.0524 | 82.9 | 0.187 | 88.2 |
| SHB | SID160716683 | -0.055 | 80.8 | -0.332 | 98.5 |
| ODC1 | SID160778350 | -2.69 | 28.4 | -2.46 | 60.8 |
| ODC1 | SID160778351 | -3.11 | 20 | -3.11 | 50.7 |
| ODC1 | SID160778352 | -3.21 | 18 | -3.88 | 56.1 |
| TRIP11 | SID160721937 | -0.221 | 77.5 | -0.672 | 103 |
| TRIP11 | SID160721938 | 0.424 | 90.3 | -0.174 | 106 |
| TRIP11 | SID160721939 | -0.261 | 76.7 | -0.847 | 107 |
| COLEC11 | SID160734914 | 2.48 | 131 | 1.7 | 93.8 |
| COLEC11 | SID160748427 | 2.19 | 126 | 1.62 | 91.5 |
| COLEC11 | SID160748429 | 0.232 | 86.5 | 0.084 | 94.5 |
| MON1A | SID160735093 | -1.13 | 59.3 | -0.268 | 71.1 |
| MON1A | SID160752143 | -0.573 | 70.5 | -0.211 | 83.3 |
| MON1A | SID160752144 | 0.98 | 101 | 0.484 | 99.7 |
| ZNF664 | SID160730640 | 0.18 | 85.5 | 0.594 | 81.7 |
| ZNF664 | SID160758132 | -0.47 | 72.5 | -0.22 | 85.9 |
| ZNF664 | SID160758133 | -0.113 | 79.6 | -0.453 | 100 |
| ACVR1C | SID160756954 | 1.45 | 111 | 0.879 | 98.2 |
| ACVR1C | SID160756955 | 0.367 | 89.2 | 0.742 | 82 |
| ACVR1C | SID160756956 | -0.0263 | 81.4 | -0.176 | 95.2 |
| LOC729268 (retired record) | SID160726982 | -0.657 | 68.8 | -0.584 | 89.7 |
| LOC729268 (retired record) | SID160772592 | -0.443 | 73.1 | -0.293 | 88.2 |
| LOC729268 (retired record) | SID160772593 | -0.838 | 65.2 | 0.0611 | 71.7 |
| KDSR | SID160767931 | -0.215 | 77.6 | -0.24 | 92.4 |
| KDSR | SID160767942 | -1.34 | 55.2 | -1.7 | 96.4 |
| KDSR | SID160767952 | 1.17 | 105 | 1.72 | 74.8 |
| CYP26C1 | SID160731106 | -0.177 | 78.4 | -1.2 | 120 |
| CYP26C1 | SID160764475 | 0.908 | 99.9 | 0.0297 | 111 |
| CYP26C1 | SID160764476 | 1.45 | 111 | 1.35 | 86.7 |
| RNF123 | SID160747220 | 0.069 | 83.3 | -0.176 | 97.5 |
| RNF123 | SID160747221 | -0.288 | 76.2 | -0.937 | 109 |
| RNF123 | SID160747222 | -0.197 | 78 | 0.17 | 83.3 |
| CRYGC | SID160723716 | 2.31 | 128 | 2.16 | 80.8 |
| CRYGC | SID160748773 | 1.05 | 103 | 0.601 | 98 |
| CRYGC | SID160748783 | -0.731 | 67.3 | -0.566 | 87.3 |

Only “total luciferase, % of control” (10 entries from above):
ACVR1C [SID160756956]	81.4
LOC729268 (retired record) [SID160726982]	68.8
LOC729268 (retired record) [SID160772592]	73.1
LOC729268 (retired record) [SID160772593]	65.2
KDSR [SID160767931]	77.6
KDSR [SID160767942]	55.2
KDSR [SID160767952]	105
CYP26C1 [SID160731106]	78.4
CYP26C1 [SID160764475]	99.9
CYP26C1 [SID160764476]	111

Further entries follow.
| gene | PubChem SID | total luciferase, z-score | total luciferase, % of control | luciferase per cell, z-score | viable cells, % of control |
| --- | --- | --- | --- | --- | --- |
| COX7C | SID160730606 | 1.34 | 108 | 0.429 | 108 |
| COX7C | SID160747038 | 0.659 | 95 | 0.032 | 105 |
| COX7C | SID160747059 | -0.166 | 78.6 | 0.429 | 78.4 |
| H2AC4 | SID160719876 | -0.518 | 71.6 | -0.766 | 97.9 |
| H2AC4 | SID160724138 | -1.67 | 48.7 | -2.14 | 95.8 |
| H2AC4 | SID160724139 | -1.6 | 50.1 | -0.973 | 72.3 |
| IMPA1 | SID160775818 | -0.351 | 74.9 | -0.616 | 98.5 |
| IMPA1 | SID160775819 | -1.11 | 59.7 | -1.53 | 99.8 |
| IMPA1 | SID160775820 | -1.77 | 46.6 | -1.85 | 84.8 |
| OR2D2 | SID160755828 | -0.448 | 73 | 0.519 | 71.1 |
| OR2D2 | SID160755829 | 0.0269 | 82.4 | 0.467 | 81.4 |
| OR2D2 | SID160755830 | -1.06 | 60.8 | -0.437 | 76.2 |
| CD69 | SID160739655 | -0.234 | 77.2 | 0.0881 | 84.3 |
| CD69 | SID160739666 | 2.31 | 128 | 2.44 | 75.1 |
| CD69 | SID160739677 | 0.138 | 84.6 | 0.0829 | 92.5 |
| PTPRE | SID160715394 | -0.905 | 63.9 | -0.412 | 79.6 |
| PTPRE | SID160715395 | -0.323 | 75.5 | -0.583 | 98.3 |
| PTPRE | SID160715396 | 0.19 | 85.7 | -0.299 | 104 |
| IRF5 | SID160775930 | 0.687 | 95.5 | 0.466 | 94.4 |
| IRF5 | SID160775931 | 0.43 | 90.4 | 1.08 | 76 |
| IRF5 | SID160775932 | -0.026 | 81.4 | -0.932 | 116 |
| OR4A47 | SID160767482 | -0.725 | 67.5 | 0.622 | 64 |
| OR4A47 | SID160767483 | -0.156 | 78.8 | -0.191 | 92.6 |
| OR4A47 | SID160767484 | 0.752 | 96.9 | 0.212 | 102 |
| SEC61A2 | SID160743137 | 1.72 | 116 | 1.44 | 88.8 |
| SEC61A2 | SID160743138 | 1.77 | 117 | 1.78 | 81.9 |
| SEC61A2 | SID160743139 | -0.0767 | 80.4 | -0.801 | 111 |
| OSBPL2 | SID160723345 | -1.82 | 45.8 | -0.891 | 64.7 |
| OSBPL2 | SID160723347 | -0.126 | 79.4 | -0.723 | 107 |
| OSBPL2 | SID160723348 | -0.692 | 68.1 | -0.941 | 97.5 |
| FAF1 | SID160729993 | -0.0659 | 80.6 | 0.268 | 83.9 |
| FAF1 | SID160729994 | -1.1 | 60 | -1.55 | 101 |
| FAF1 | SID160729995 | 1.29 | 107 | 1.08 | 90.4 |
| FANCE | SID160763593 | 0.837 | 98.5 | 0.872 | 87.5 |
| FANCE | SID160763603 | -0.311 | 75.7 | -0.000896 | 84.6 |
| FANCE | SID160763613 | 0.127 | 84.4 | 0.911 | 74.2 |
